Taken from: PubChem BioAssay AID1224830 (NIAID, 2016)

Assay: 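Host factors that control LPS-induced TNF expression in human macrophages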 (primary screen)
Cells: human THP-1 monocytic leukaemia cells, TNF dual-luciferase reporter clone, PMA-differentiated to macrophage-like cells
Reagents: siRNA pool against human genes, 50 nM
Duration: LPS for 4 h, given about 3 days after siRNA transfection
Conditions: bacterial LPS (TLR4 ligand), 10 ng/ml
Measured: 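Ratio of firefly to renilla light, scaled to the plate median and expressed as a robust z-score per replicate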
Direction: TNF reporter robust z-score: higher = stronger TNF reporter response to LPS
Hit rule: 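a well is active when its z-score exceeds 2.8 or falls below -1.5; control wells carry no call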
This is one part, drawn at random, of about 18,000 reagents tested. About 2,900 of them (16%) count as active. 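Calls are made per well; low scores hint the gene aids the LPS response, high scores that it dampens it.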 Repeated entries: four replicate wells of each siRNA pool. No sequences are given here.

no.	gene	PubChem SID	TNF reporter robust z-score	Outcome
1	TMEM44	SID315461058	0.72	inactive
2	TMEM44	SID315461058	0.41	inactive
3	TMEM44	SID315461058	-0.14	inactive
4	TMEM44	SID315461058	-0.13	inactive
5	SNTN	SID315461915	-0.45	inactive
6	SNTN	SID315461915	-1.07	inactive
7	SNTN	SID315461915	-0.77	inactive
8	SNTN	SID315461915	0.68	inactive
9	HDGFL2	SID315460482	-0.01	inactive
10	HDGFL2	SID315460482	-0.7	inactive
11	HDGFL2	SID315460482	-1.41	inactive
12	HDGFL2	SID315460482	-0.48	inactive
13	JAG1	SID315447243	-1.17	inactive
14	JAG1	SID315447243	-0.98	inactive
15	JAG1	SID315447243	-1.19	inactive
16	JAG1	SID315447243	-0.03	inactive
17	PTGDS	SID315450928	0.16	inactive
18	PTGDS	SID315450928	0.17	inactive
19	PTGDS	SID315450928	0.13	inactive
20	PTGDS	SID315450928	0.23	inactive
21	EIF4ENIF1	SID315458081	-1.29	inactive
22	EIF4ENIF1	SID315458081	-0.31	inactive
23	EIF4ENIF1	SID315458081	-0.81	inactive
24	EIF4ENIF1	SID315458081	-0.69	inactive
25	ARHGAP10	SID315459360	1.7	inactive
26	ARHGAP10	SID315459360	2.36	inactive
27	ARHGAP10	SID315459360	3.56	active
28	ARHGAP10	SID315459360	0.92	inactive
29	KLK9	SID315463771	1.01	inactive
30	KLK9	SID315463771	0.03	inactive
31	KLK9	SID315463771	3.23	active
32	KLK9	SID315463771	-0.48	inactive
33	FHIP1B	SID315460171	1.43	inactive
34	FHIP1B	SID315460171	-0.14	inactive
35	FHIP1B	SID315460171	0.59	inactive
36	FHIP1B	SID315460171	-0.01	inactive
37	BCL2L15	SID315464914	-0.16	inactive
38	BCL2L15	SID315464914	0.06	inactive
39	BCL2L15	SID315464914	-0.33	inactive
40	BCL2L15	SID315464914	0.67	inactive
41	CCDC87	SID315457519	1.11	inactive
42	CCDC87	SID315457519	0.5	inactive
43	CCDC87	SID315457519	-0.1	inactive
44	CCDC87	SID315457519	1.22	inactive
45	RBM48	SID315460164	-0.15	inactive
46	RBM48	SID315460164	0.93	inactive
47	RBM48	SID315460164	-0.17	inactive
48	RBM48	SID315460164	1.9	inactive
49	PRKCE	SID315450805	2.01	inactive
50	PRKCE	SID315450805	0.45	inactive
51	PRKCE	SID315450805	0.83	inactive
52	PRKCE	SID315450805	-0.08	inactive
53	PRDM4	SID315454607	0.49	inactive
54	PRDM4	SID315454607	1.39	inactive
55	PRDM4	SID315454607	0.13	inactive
56	PRDM4	SID315454607	0.8	inactive
57	PEX26	SID315457761	-1.2	inactive
58	PEX26	SID315457761	-0.86	inactive
59	PEX26	SID315457761	-1.61	active
60	PEX26	SID315457761	-1.3	inactive
61	ATG4A	SID315461294	-0.49	inactive
62	ATG4A	SID315461294	-0.07	inactive
63	ATG4A	SID315461294	0.06	inactive
64	ATG4A	SID315461294	0.87	inactive
65	TBXAS1	SID315451775	0.82	inactive
66	TBXAS1	SID315451775	2.13	inactive
67	TBXAS1	SID315451775	1.46	inactive
68	TBXAS1	SID315451775	0.45	inactive
69	HSPBAP1	SID315459364	0.56	inactive
70	HSPBAP1	SID315459364	0.89	inactive
71	HSPBAP1	SID315459364	0.65	inactive
72	HSPBAP1	SID315459364	-0.12	inactive
73	PIH1D1	SID315457343	-0.39	inactive
74	PIH1D1	SID315457343	-0.26	inactive
75	PIH1D1	SID315457343	-1.13	inactive
76	PIH1D1	SID315457343	0.25	inactive
